Like-named read-outs stand apart in the source and are kept apart here. Results are given in words; binding and its absence hold for the method and conditions named. Binding seen in cells or lysates may run through a third protein. Some binding calls cover weakened binding; strength is not graded here. Values belong to the molecule of their own block, whether it stands above or below them.
Experiments:
[1] = biological target: c-Myc (human (endogenous in PC-3)) (UniProt P01106); test: co-IP; total lysates of PC-3 cells (transfected with pre-miR negative control or pre-miR-34a for 72 h); precleared lysate incubated with anti-c-Myc antibody or normal rabbit IgG and protein A/G-Sepharose beads overnight at 4°C; lysis and wash buffer 250 mM NaCl, 50 mM HEPES pH 7.5, 0.1% Nonidet P40, 5 mM EDT, protease inhibitors; Western blot
[2] = biological target: c-Myc (human (endogenous in PC-3)) (UniProt P01106); test: as above; remark: listed apart in the source

Sequences of proteins named here, by UniProt entry; tags and fusion partners are left off. A change or cut given only in a name is not applied to a line headed by its entry.
UniProt P01106: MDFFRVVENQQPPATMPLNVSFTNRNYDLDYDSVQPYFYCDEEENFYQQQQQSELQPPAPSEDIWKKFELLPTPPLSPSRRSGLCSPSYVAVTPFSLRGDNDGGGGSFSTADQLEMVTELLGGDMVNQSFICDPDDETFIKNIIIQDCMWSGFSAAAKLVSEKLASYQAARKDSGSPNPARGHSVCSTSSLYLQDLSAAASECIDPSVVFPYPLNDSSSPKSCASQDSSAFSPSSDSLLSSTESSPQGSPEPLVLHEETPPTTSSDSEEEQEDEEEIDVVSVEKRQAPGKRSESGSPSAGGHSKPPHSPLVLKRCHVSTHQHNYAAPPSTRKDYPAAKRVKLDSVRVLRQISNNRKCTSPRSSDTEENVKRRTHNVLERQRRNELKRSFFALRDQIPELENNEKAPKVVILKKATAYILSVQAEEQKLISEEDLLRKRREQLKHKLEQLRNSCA
UniProt O60563: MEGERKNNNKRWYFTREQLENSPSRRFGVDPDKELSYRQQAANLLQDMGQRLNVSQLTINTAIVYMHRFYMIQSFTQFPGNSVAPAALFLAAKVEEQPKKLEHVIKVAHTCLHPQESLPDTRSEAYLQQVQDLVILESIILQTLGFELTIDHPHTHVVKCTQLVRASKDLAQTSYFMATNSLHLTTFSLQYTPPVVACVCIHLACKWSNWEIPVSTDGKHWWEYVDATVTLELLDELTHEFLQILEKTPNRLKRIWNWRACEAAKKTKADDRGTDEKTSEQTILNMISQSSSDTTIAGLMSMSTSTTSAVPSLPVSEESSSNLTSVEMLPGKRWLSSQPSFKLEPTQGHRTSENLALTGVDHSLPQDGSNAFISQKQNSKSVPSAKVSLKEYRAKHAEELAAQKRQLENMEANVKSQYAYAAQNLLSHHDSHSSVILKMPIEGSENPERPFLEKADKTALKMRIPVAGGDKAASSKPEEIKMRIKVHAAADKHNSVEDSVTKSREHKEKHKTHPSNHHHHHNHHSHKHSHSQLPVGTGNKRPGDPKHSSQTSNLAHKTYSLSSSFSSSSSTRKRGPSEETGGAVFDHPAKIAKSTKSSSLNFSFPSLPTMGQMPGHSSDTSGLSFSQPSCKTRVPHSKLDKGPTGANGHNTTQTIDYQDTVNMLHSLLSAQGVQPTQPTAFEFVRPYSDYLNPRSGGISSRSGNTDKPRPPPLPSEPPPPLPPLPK

- binding [1]: binds
Molecule: positive transcription elongation factor b (P-TEFb) (from UniProt O60563 1-726; P50750 1-372) (complex)

- binding [2]: binds
B1: Miz1 (protein, UniProt Q13105 1-803)
chain: MDFPQHSQHVLEQLNQQRQLGLLCDCTFVVDGVHFKAHKAVLAACSEYFKMLFVDQKDVVHLDISNAAGLGQVLEFMYTAKLSLSPENVDDVLAVATFLQMQDIITACHALKSLAEPATSPGGNAEALATEGGDKRAKEEKVATSTLSRLEQAGRSTPIGPSRDLKEERGGQAQSAASGAEQTEKADAPREPPPVELKPDPTSGMAAAEAEAALSESSEQEMEVEPARKGEEEQKEQEEQEEEGAGPAEVKEEGSQLENGEAPEENENEESAGTDSGQELGSEARGLRSGTYGDRTESKAYGSVIHKCEDCGKEFTHTGNFKRHIRIHTGEKPFSCRECSKAFSDPAACKAHEKTHSPLKPYGCEECGKSYRLISLLNLHKKRHSGEARYRCEDCGKLFTTSGNLKRHQLVHSGEKPYQCDYCGRSFSDPTSKMRHLETHDTDKEHKCPHCDKKFNQVGNLKAHLKIHIADGPLKCRECGKQFTTSGNLKRHLRIHSGEKPYVCIHCQRQFADPGALQRHVRIHTGEKPCQCVMCGKAFTQASSLIAHVRQHTGEKPYVCERCGKRFVQSSQLANHIRHHDNIRPHKCSVCSKAFVNVGDLSKHIIIHTGEKPYLCDKCGRGFNRVDNLRSHVKTVHQGKAGIKILEPEEGSEVSVVTVDDMVTLATEALAATAVTQLTVVPVGAAVTADETEVLKAEISKAVKQVQEEDPNTHILYACDSCGDKFLDANSLAQHVRIHTAQALVMFQTDADFYQQYGPGGTWPAGQVLQAGELVFRPRDGAEGQPALAETSPTAPECPPPAE
